We go through 61 molecules from PubChem BioAssay AID2685 (National Center for Advancing Translational Sciences (NCATS), 2010).

Structures are written as SMILES. Some of the results follow. The main result of the screen is listed elsewhere. These columns were measured beside it and carry no call. The list favours compounds with an active or inconclusive main result. Potencies come from curve fits of mixed quality, noted in brackets.

The term AC50 denotes the concentration giving half of the maximal activity seen. Lower therefore signals greater potency.

The nature of the test: qHTS Assay for Lipid Storage Modulators in Drosophila S3 Cells.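 As to cell number change: cells counted by Cell Tracker Red CMTPX staining in the red channel.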 Conditions: BODIPY lipid droplet fluorescence, 18-24 h; for cell number change: measured here: cell count max response, cells fed with added oleic acid. Summed up:
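Drosophila S3 cells got compounds at several concentrations plus oleic acid (400 uM solution). Laser-scanning cytometry with 488 nm excitation read lipid droplets at 500-530 nm and cells at 575-640 nm. Percent activity was relative to 20 uM Triacsin C.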

The mark [1] stands for this setting: measured here: lipid fluorescence (Fed channel) AC50, cells fed with added oleic acid.
[2] abbreviates: measured here: cell number channel AC50, cells fed with added oleic acid.

As to `Cn1c(=O)c2c(nc(N3CCNCC3)n2Cc2cccc3ccccc23)n(C)c1=O`, the cell number change was -16.5%. The AC50 under setting [1] was 7.31 µM [falling, partial curve].
For the molecule `CCCc1nc(NC(C)=O)c(C#N)c(-c2ccco2)c1CC`, the cell number change was -11.1%.
As to `C=CCNC(=O)/C=C/c1c(F)cccc1Cl`, the cell number change is 3.85%. For the same molecule, under setting [1], the AC50 is 16.4 µM [rising, single point].
`Cc1ccc(C)c(N2CCN(C(=O)CCS(=O)(=O)c3ccc4c(c3)CCN4C(=O)C3CC3)CC2)c1`: the AC50 under setting [1] was 29.1 µM [falling, single point].
Consider `CCCCc1nc2cc(C(=O)N3CCCCC3CCO)ccc2o1` (stereo unspecified), for which the cell number change was found to be 8.3%. Also, the AC50 under setting [1] was 25.9 µM [rising, single point].
Take `Cc1ccn(CCSCC(=O)O)n1`: the cell number change came to 4.08%. The concentration at half-maximal activity (AC50) under setting [1] is 29.1 µM [rising, single point].
As to `COc1ccccc1N=NC1=C(O)CC(C)(C)CC1=O`, the cell number change is -10.6%. The AC50 under setting [1] was 2.59 µM [rising, partial curve].
For `O=C(Nc1cccc(Cl)c1)C1CCCN(C2=NS(=O)(=O)c3ccccc32)C1` (stereo unspecified), the cell number change amounted to 25%. In addition, the AC50 under setting [2] is 0.164 µM [rising, full curve, poor fit].
Consider `CCCCCCN1CC(=O)N2Cc3[nH]c4ccccc4c3C[C@H]2C1=O`, for which the cell number change is -32.4%. In addition, the half-maximal activity concentration (AC50) under setting [2] was 14.6 µM [falling, single point].
Regarding `CC(C)(O)c1[nH]c2ccc(C#N)cc2c1C(C)(C)O`, the cell number change worked out at 40.1%. Moreover, the AC50 under setting [2] was 25.9 µM [rising, partial curve, poor fit].
On to `Cc1csc(NC(=O)c2cccs2)n1`, for which the cell number change is -13.5%. Also, under setting [1], the AC50 was 3.26 µM [falling, full curve, poor fit].
As for `CCCS(=O)(=O)N1CCN(Cc2c[nH]c3ccccc23)CC1`, the cell number change is -10.9%.
In the case of `Cc1ccc(NCc2nnc(SCC(=O)Nc3ncc(C)s3)n2Cc2ccco2)c(C)c1`, the cell number change is -69.5%. For the same molecule, the AC50 under setting [2] was 29.1 µM [falling, single point]. Moreover, the AC50 under setting [1] is 1.64 µM [falling, partial curve].
Consider `O=C(NC1CCCCC1)C(c1c(F)cccc1Cl)N(C(=O)c1csnn1)C1CC1` (stereo unspecified), for which the cell number change is -8.06%. Moreover, under setting [1], the AC50 is 18.4 µM [falling, partial curve, poor fit].
In the case of `CCOc1ccc2c(c1)[nH]c(=S)n2C`, the cell number change was -4.61%. For the same molecule, the concentration at half-maximal activity (AC50) under setting [1] is 0.092 µM [falling, full curve, poor fit].
For `COCc1cc(=O)[nH]c(Nc2nc(C)c3ccccc3n2)n1`, the cell number change is 11.9%. Moreover, the half-maximal activity concentration (AC50) under setting [2] is 1.16 µM [rising, full curve]. Also, under setting [1], the AC50 is 2.06 µM [rising, partial curve].
Take `CCOCC(=O)N1CCCC(C(=O)OCC)C1` (stereo unspecified): the AC50 under setting [1] is 2.06 µM [falling, partial curve].
Regarding `O=C(Nc1ccccc1C(=O)N1CCOCC1)C1CCCO1` (stereo unspecified), the cell number change is -17.8%. Moreover, under setting [1], the AC50 is 29.1 µM [falling, single point].
Consider `COC(=O)c1cc(NS(=O)(=O)c2ccc(N3CCOCC3)c([N+](=O)[O-])c2)cc(C(=O)OC)c1`, for which the cell number change is -28.9%. The AC50 under setting [1] is 32.6 µM [rising, single point].
In the case of `COc1cccc(CN2CC(C(=O)N3CCCO3)CCC2=O)c1` (stereo unspecified), the cell number change turned out to be 14.6%.
`CSc1ccc(CCNC(=O)c2ccc(CS(=O)Cc3ccc(Cl)cc3)o2)cc1` (stereo unspecified): the AC50 under setting [1] is 11.6 µM [falling, partial curve, poor fit].
Take `COc1cc(C(C#N)N2CCC(c3ccccc3)=N2)ccc1O` (stereo unspecified): the AC50 under setting [1] was 29.1 µM [rising, single point].
On to `COc1ccc(S(=O)(=O)N2CCCC(C(=O)NCc3cccnc3)C2)cc1` (stereo unspecified), for which the cell number change is 22.6%.
As for `CC(=O)Nc1nnc(SCC(=O)N2CCCc3ccccc32)s1`, the cell number change came out at 33.8%. Also, the AC50 under setting [2] is 29.1 µM [rising, single point].
As for `Cc1oc(/C=N/NC(=O)CN(c2ccccc2Cl)S(C)(=O)=O)cc1Br`, the AC50 under setting [1] was 0.146 µM [falling, full curve, poor fit].
On to `COc1cccc(-c2nc(=S)c3c(n2Cc2ccco2)CCCC3)c1`, for which the cell number change is -7.82%.
In the case of `O=C1CCCCCC1C1(O)C(=O)Nc2ccccc21` (stereo unspecified), the cell number change is -10.2%. Besides, the AC50 under setting [1] is 0.651 µM [falling, full curve, poor fit].
With `COC(=O)c1nc(NC(=O)c2cc(OC)c(OC)c(OC)c2)n[nH]1`, the cell number change is 16.7%.
In the case of `N#Cc1c(C(F)(F)F)cc(-c2cccs2)nc1SCc1cccnc1`, the cell number change was -34.5%. Besides, the AC50 under setting [2] was 13 µM [falling, partial curve]. Under setting [1], the AC50 is 6.51 µM [falling, full curve, poor fit].
In the case of `Cc1ccc(N(C)S(=O)(=O)c2ccc(-c3ccc(=O)[nH]n3)s2)cc1C`, the cell number change stood at 0.295%. Under setting [1], the AC50 is 6.51 µM [rising, partial curve, poor fit].
Turning to `O=C(NCCn1cc(SCc2ccccc2)c2ccccc21)c1ccccc1F`, the cell number change is -24.4%. For the same molecule, the AC50 under setting [1] was 1.16 µM [falling, single point].
With `Cc1nc2ccc(NS(=O)(=O)c3ccc(Br)cc3)cc2s1`, the cell number change was -30.3%. The AC50 under setting [2] is 29.1 µM [falling, single point]. In addition, the AC50 under setting [1] was 4.11 µM [falling, full curve, poor fit].
`Clc1ccc2c(c1)nc1n2CCCC1`: the cell number change was -0.685%. Also, the AC50 under setting [1] is 16.4 µM [rising, single point].
With `CCC1(O)CC(C(=O)OC)=NN1C(=O)c1ccccc1` (stereo unspecified), the AC50 was 5.8 µM [rising, single point] under setting [2] and 6.51 µM [falling, single point] under setting [1].
In the case of `CCOc1cc(NC(=O)C(C)C)c(OCC)cc1NC(=O)Nc1ccccc1`, the cell number change was -39.9%. For the same molecule, under setting [2], the AC50 was 13 µM [falling, partial curve].
Take `O=C(Cc1nn[nH]n1)Nc1cc(Cl)cc(Cl)c1`: the cell number change was determined as 10.6%.
With `CCC(CO)(CO)N(CC(=O)Nc1ccc(OC)cc1)CC(=O)Nc1ccc(OC)cc1`, the cell number change was -36.6%. Further, the AC50 under setting [2] was 3.66 µM [falling, full curve]. Further, the AC50 under setting [1] is 2.06 µM [falling, partial curve].
For `O=C(CCC(=O)N/N=C/c1c[nH]c2ccccc12)NCc1ccccc1`, the cell number change is 5.59%. Also, the AC50 under setting [1] was 0.0651 µM [rising, full curve, poor fit].
Turning to `O=C(Nc1ccc(F)cc1F)c1sccc1SCc1cccc(C(F)(F)F)c1`, the cell number change was -9.62%.
Same read-out and setting: to `CC(=O)Nc1nnc(SCC(=O)N2C(C)CCCC2C)s1` (stereo unspecified) belongs -2.56%.
In the case of `N=c1c(C(=O)NCc2ccccc2)cc2c(=O)n3ccccc3nc2n1Cc1ccco1`, the cell number change stood at 128%. In addition, under setting [2], the AC50 was 2.59 µM [rising, full curve]. For the same molecule, the AC50 under setting [1] is 20.6 µM [rising, partial curve].
As for `CC(C)c1cc(C(=O)OCC(=O)NC(=O)NCc2ccco2)c(O)c(C(C)C)c1`, the cell number change is -42.9%. Besides, the AC50 under setting [2] was 5.8 µM [falling, full curve]. Moreover, the AC50 under setting [1] is 18.4 µM [falling, single point].
With `CC(C)(C)c1ccc(OCCC(=O)OCC(=O)N2c3ccccc3NC(=O)C2(C)C)cc1`, the cell number change stood at 129%. Moreover, under setting [2], the AC50 was 14.6 µM [rising, partial curve].
In the case of `CCc1cccc(OCCOCCN2CCCC2)c1`, the cell number change was -29.2%. In addition, the half-maximal activity concentration (AC50) under setting [2] is 0.82 µM [falling, full curve, poor fit]. For the same molecule, the AC50 under setting [1] is 0.116 µM [falling, full curve, poor fit].
In the case of `CN1CCc2c(n(CC(O)CN(CCO)CCO)c3ccccc23)C1=O` (stereo unspecified), the cell number change was -59.2%. Besides, the AC50 under setting [2] was 2.59 µM [falling, partial curve]. Also, the AC50 under setting [1] was 2.31 µM [falling, partial curve, poor fit].
For `Cc1nc(N2CCN(Cc3ccc4c(c3)OCO4)CC2)c2cc(-c3ccccc3)sc2n1`, the cell number change amounted to 21.8%. Besides, the AC50 under setting [1] is 0.082 µM [rising, full curve, poor fit].
Turning to `CCOC(=O)c1c(NCC(C)C)c2ccccc2[nH]c1=O`, the cell number change is -11%. The AC50 under setting [2] is 1.84 µM [rising, partial curve].
`CCOc1ccccc1N1CCN(S(=O)(=O)c2ccc(F)c(F)c2)CC1`: the cell number change is -7.91%. In addition, under setting [1], the AC50 is 0.82 µM [rising, full curve, poor fit].
For the molecule `C/C(CC(=O)NCc1ccccc1Cl)=N/NC(=O)c1ccccn1`, the cell number change was -25%.
For the molecule `CC(C)c1nc2cc(C(=O)N3CCNC(=O)C3c3ccc(F)cc3)ccc2o1` (stereo unspecified), the cell number change is -3.3%. The AC50 under setting [1] is 1.46 µM [rising, partial curve].
As to `O=C(Nc1ccncc1)C1CCC(CNS(=O)(=O)c2cccc3nsnc23)CC1` (stereo unspecified), the cell number change was -33.3%. Under setting [2], the AC50 was 0.116 µM [falling, full curve, poor fit]. Further, the AC50 under setting [1] is 29.1 µM [falling, single point].
Consider `COc1ccc(C(C(=O)NC(C)(C)C)N(C(=O)CCC(=O)Nc2ccccn2)C2CCCCC2)cc1` (stereo unspecified), for which the cell number change was 5.88%. Further, the AC50 under setting [1] is 0.13 µM [rising, partial curve, poor fit].
In the case of `O=C(O)C1CCCN(S(=O)(=O)c2ccc(Cl)s2)C1` (stereo unspecified), the cell number change is -13.5%.
For `Cc1cc(C)nc(CCNC(=O)CC2C(=O)NCCN2Cc2ccc(F)cc2Cl)n1` (stereo unspecified), the cell number change is 4.46%. Further, under setting [1], the AC50 was 29.1 µM [rising, single point].
For `CN(Cc1ccccc1)C(=O)COC(=O)CCN1C(=O)C2CC=CCC2C1=O` (stereo unspecified), the cell number change was -3.5%. Also, the AC50 under setting [1] was 29.1 µM [rising, single point].
Regarding `COc1ccc(Cc2nnc(N/N=C/c3ccccc3O)[nH]c2=O)cc1OC`, the cell number change was -14.1%. Also, under setting [1], the AC50 was 3.66 µM [falling, partial curve, poor fit].
For the molecule `CCOC(=O)c1sc(NC(=O)CSc2nnc(C(C)C)n2C)nc1C`, the cell number change is -31%. Moreover, the AC50 under setting [2] is 29.1 µM [falling, single point]. The AC50 under setting [1] was 29.1 µM [falling, single point].
As for `CC1(C)Cc2ccccc2-c2nnc(SCC(=O)N3CCc4ccccc43)n21`, the cell number change is -53.5%. Besides, the AC50 under setting [2] is 3.66 µM [falling, full curve].
For the molecule `CCN=C1SC(CC(=O)NCCc2ccc(OC)c(OC)c2)C(=O)N1CC` (stereo unspecified), the cell number change was -8.77%.
For `Cc1cccc(N2CC(C(=O)NCC3COc4ccccc4O3)CC2=O)c1C` (stereo unspecified), the cell number change is 16%. In addition, the AC50 under setting [1] is 0.326 µM [rising, partial curve, poor fit].
Turning to `O=C(NCc1ccncc1)C1CCN(S(=O)(=O)c2ccccc2)CC1`, the cell number change amounted to 32%. Under setting [2], the AC50 was 0.517 µM [rising, full curve, poor fit].
